Measurements reported in PubChem BioAssay AID504774 (Drosophila RNAi Screening Center, 2011).
The screen tested about 23,000 reagents; shown is an unselected part of those that have a named target and a result. 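Values are quantile-normalised luminescence on an arbitrary scale; higher means more cells surviving MMS.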 Further read-outs or replicates are left out here.

Assay: 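Fly genes whose loss alters survival after alkylation damage to DNA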 (primary screen)
Cell system: Drosophila Kc167 cells
Reagent: long dsRNA against Drosophila genes, about 0.25 µg dsRNA per well
Timing: about 6 days: 3 days knock-down, then 3 days with or without MMS
Challenge: methyl methanesulphonate 0.004% (w/v) for 3 days after knock-down
Measured: 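ATP-dependent luminescence as a measure of live cells in MMS-exposed wells, quantile normalised within each plate, with replicate values also given as a mean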
Scale: mean viability with MMS and viability with MMS: higher = more surviving cells after MMS

no.	gene	dsRNA	mean viability with MMS	viability with MMS, replicate 1
1	Dera	DRSC07207	3.63e6	4.00e6
2	Dera	DRSC21336	3.77e6	4.27e6
3	TpnC25D	DRSC02965	3.47e6	3.93e6
4	Mst57Dc	DRSC16745	3.44e6	3.91e6
5	Edem1	DRSC18573	3.49e6	4.08e6
6	lectin-37Da	DRSC03278	3.65e6	4.05e6
7	lectin-37Da	DRSC22729	3.63e6	4.10e6
8	CG12929	DRSC06242	3.47e6	3.99e6
9	Cyp9b2	DRSC07390	3.73e6	4.19e6

Sorted by “mean viability with MMS” (ascending): 2 of the entries above.
gene	dsRNA	mean viability with MMS	viability with MMS, replicate 1
Edem1	DRSC18573	3.49e6	4.08e6
lectin-37Da	DRSC03278	3.65e6	4.05e6

More entries follow:
no.	gene	dsRNA	mean viability with MMS	viability with MMS, replicate 1
10	CG4250	DRSC04455	3.50e6	3.83e6
11	GlcAT-P	DRSC10603	3.61e6	4.06e6
12	GlcAT-P	DRSC10604	3.40e6	3.82e6
13	CG34393	DRSC00419	3.76e6	4.13e6
14	CG34393	DRSC00710	3.78e6	4.04e6
15	tim	DRSC00841	3.62e6	4.28e6
16	DCTN3-p24	DRSC04592	3.44e6	3.77e6
17	CG7691	DRSC16287	3.66e6	4.25e6
18	CG8774	DRSC16445	3.37e6	3.87e6
19	CG34282	DRSC16298	3.59e6	3.90e6
20	BobA	DRSC09889	3.71e6	4.15e6
21	CG15923	DRSC15129	3.62e6	4.05e6
22	mus301	DRSC10939	3.34e6	3.89e6
23	CG5888	DRSC01929	3.64e6	3.93e6
24	CysRS	DRSC05948	3.70e6	4.14e6
25	CG32365	DRSC10040	3.49e6	3.93e6
26	CG32365	DRSC10041	2.88e6	3.49e6
27	CG32365	DRSC10977	2.92e6	3.51e6
28	CG5500	DRSC15820	3.69e6	4.25e6
